Among all 400,000 compounds or so, about 13,000 (3.2%) were called active. The inconclusive results got no clear call from the source; some entries with a clear call stand among them for comparison. The call rests on the fitted dose curve; in most records, active means well fitted cell-killing curve with a large enough effect; inconclusive means small, poorly fitted or top-dose-only effect, or effect the other way; inactive means flat fitted curve, though single readings scatter. Potencies beside an inconclusive call are fits to weak or partial responses and may not hold up.
Test: qHTS assay for MDR1-selective chemotherapeutics: Primary screen using the drug-selected MDR subline cells KB-V1; further: nearly all actives have a fitted effect of over 60% in size
Details: KB-V1 MDR cells viability, CellTiter-Glo, 72 h; series mostly up to 46.1 µM
How it was run: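 KB-V1 MDR subline cells in DMEM (phenol-red free, 10% FBS) exposed to compounds in qHTS concentration series for 72 h at 37 degrees C. Viability read by CellTiter-Glo luminescence; concentration-effect curves fitted after normalization and correction.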
Potency means the concentration at half of the fitted maximal effect.

| Compound | Potency |
| --- | --- |
| O=c1c2ccccc2n2c(-c3ccc(F)c(F)c3)nnc2n1CCc1ccccc1 | inactive |
| c1ccc2c(c1)CCN(Cc1nnnn1Cc1ccc3c(c1)OCO3)C2 | inconclusive: 18.4 µM [cytotoxic, partial curve, poor fit] |
| CC(=O)CCc1c(C)c2cc(C)ccc2[nH]c1=O | inconclusive: 20.6 µM [cytotoxic, single point] |
| O=C(CSc1nnc(Cc2cccs2)n1C1CCCCC1)N1CCCc2ccccc21 | active: 20.6 µM |
| CCOC(=O)c1c(S(=O)(=O)N2CCCC(C(=O)Nc3ccc(C)cc3C)C2)c(C)n(CC)c1C (stereo not given) | inactive |
| CCN1C(=O)[C@H]2[C@@H](c3ccc(-c4ccccc4)cc3)N3CCCC[C@@]3(C(=O)OC)[C@H]2C1=O | inactive |
| Cc1nc(-c2nnc(-c3ccccc3)o2)c(C(F)(F)F)o1 | inconclusive: 18.4 µM [rising, partial curve, poor fit] |
| COc1cc(/C=C(\C#N)C(=O)Nc2cc(C(F)(F)F)ccc2Cl)ccc1OCC(=O)Nc1cccc(C(F)(F)F)c1 | inactive |
| CCCCC[C@H](C)N1C[C@@H](COCc2ccccc2)Oc2cc(N3CCC[C@@H]3CO)ccc2S1(=O)=O | inactive |
| C=CCOc1ccc(CN(C)C(=O)CNC(=O)c2ccc(-c3ccccc3)cc2)cc1 | active: 2.31 µM |
| COC(=O)C1=CN(C(C)C)C=C(C(=O)OC)C1c1cccc(OC)c1 | inconclusive: 13 µM [cytotoxic, partial curve, poor fit] |
| O=C(CSCc1cccc(CSCC(=O)Nc2ccc3ccccc3c2)n1)Nc1ccc2ccccc2c1 | active: 23.1 µM |
| CC(=O)Nc1ccc(C(=O)CSc2nnc3cc(C)c4ccccc4n23)cc1 | inconclusive: 0.58 µM [rising, full curve, poor fit] |
| CC(C)CC1(C)NC(=O)N(CC(=O)Nc2ccccc2Br)C1=O (stereo not given) | inactive |
| O=C(OCC(=O)N1CCOCC1)c1ccc(Br)cc1 | inconclusive: 20.6 µM [rising, single point] |
| CC1CN(Cc2nc3c(c(=O)n(C)c(=O)n3C)n2CCc2ccccc2)CC(C)O1 (stereo not given) | inactive |
| CCCCNC(=O)c1ccc2c(=O)n(-c3ccccc3)c(=O)[nH]c2c1 | inconclusive: 2.59 µM [rising, full curve] |
| CCN(C[C@H]1N[C@@](Cc2ccccc2)(C(=O)OC)[C@H]2C(=O)N(C)C(=O)[C@@H]12)S(=O)(=O)c1ccc(OC(F)(F)F)cc1 | inconclusive: 32.6 µM [cytotoxic, single point] |
| Cc1ccc(CNC(=O)c2ccc(-c3nc(CN4CCc5ccccc54)c(C)o3)cc2)cc1 | inconclusive: 3.66 µM [cytotoxic, partial curve, poor fit] |
| O=C(NCC1CCCN1S(=O)(=O)c1cccs1)C(=O)Nc1ccc(F)cc1 (stereo not given) | inconclusive: 20.6 µM [cytotoxic, single point] |
| CCCCn1c(N)c(N(C)C(=O)c2cn(-c3ccccc3)nc2-c2ccccc2)c(=O)[nH]c1=O | inconclusive: 29.1 µM [rising, single point] |
| O=C(NCc1ccc(Cl)cc1)C(=O)NCC(c1ccco1)S(=O)(=O)c1cccs1 (stereo not given) | inactive |
| C=C1C(=O)O[C@H]2C[C@]3(C)C([C@@H](OC(=O)/C(C)=C/C)[C@H]12)[C@](C)(O)CC[C@H]3O (stereo not given in full) | inactive |
| CCCOC(=O)c1ccc(-n2nnnc2SCC(=O)N2CCCCC2)cc1 | inactive |

| Compound | Potency |
| --- | --- |
| O=C(N/N=C/c1ccccc1O)c1cccc(C(F)(F)F)c1 | inconclusive: 8.2 µM [cytotoxic, partial curve] |
| CCCCn1c(-c2ccsc2)nc2c1c(=O)[nH]c(=O)n2CCC | inconclusive: 6.51 µM [cytotoxic, partial curve] |
| CC(C)(C)NC(=O)c1cccc(NC(=O)Cc2ccc(Br)cc2)c1 | inconclusive: 23.1 µM [cytotoxic, partial curve, poor fit] |
| O=C(Nc1ccc2oc(-c3ccccc3Cl)nc2c1)c1cncc(Br)c1 | active: 5.17 µM |
| Cc1cc(NC(=S)N(Cc2ccc(Br)cc2)Cc2ccc(C(=O)O)cc2)ccc1Cl | inactive |
| CN(CCOc1ccccc1)C(=O)c1ccc(Cl)c(S(=O)(=O)N2CCCCC2)c1 | inactive |
| Cc1cc(C)n(-c2nc(NCCO)c3c4c(sc3n2)CCCC4)n1 | inconclusive: 23.1 µM [cytotoxic, single point] |
| COc1cc(C(=O)Nc2nc(-c3cc(C)ccc3C)c(C)s2)ccc1OCC(=O)Nc1ccc(F)cc1 | inconclusive: 1.3 µM [cytotoxic, full curve, poor fit] |
| Cc1nc2ccc3nc(NC(=O)c4ccc5c(c4)OCCO5)sc3c2s1 | inactive |
| CC(N)=Nc1ccc([N+](=O)[O-])cc1 | inconclusive: 13 µM [rising, single point] |
| CSc1ccccc1OCc1cc(C(=O)N2C[C@H]3CC[C@H]2C3)no1 | inconclusive: 6.51 µM [cytotoxic, partial curve] |
| O=C(CCN1C(=O)c2ccccc2C1=O)Nc1sc2c(c1C(=O)NCc1ccco1)CCCC2 | inconclusive: 13 µM [cytotoxic, partial curve, poor fit] |
| Cc1c(C(=O)Nc2nccs2)oc2ccc(Br)cc12 | active: 8.2 µM |
| COc1cc(C(=O)N2CCN(c3ccc([N+](=O)[O-])cc3)CC2)ccc1OCc1c(C)noc1C | inconclusive: 29.1 µM [cytotoxic, single point] |
| O=c1c(F)cn(C2CCCO2)c(=O)n1Cc1c(Cl)cccc1Cl (stereo not given) | inconclusive: 18.4 µM [cytotoxic, single point] |
| CCc1ccc(OCc2nc(-c3ccccn3)no2)c(Br)c1 | inconclusive: 20.6 µM [cytotoxic, single point] |
| CSc1ccc(S(=O)(=O)NCCOc2ccccc2C)cc1 | inconclusive: 29.1 µM [cytotoxic, single point] |
| Cc1ccc2c(c1)N(C(=O)CCC(=O)NCCN1CCOCC1)CC(C)O2 (stereo not given) | inconclusive: 9.2 µM [rising, partial curve, poor fit] |
| CCC(=O)c1ccc(N2CCN(C(=O)Cc3ccccc3)CC2)c(F)c1 | inconclusive: 18.4 µM [cytotoxic, single point] |
| Cc1nc2sc(C(=O)OCC(=O)N3c4ccccc4CC3C)c(C)c2c(=O)[nH]1 (stereo not given) | inconclusive: 23.1 µM [cytotoxic, partial curve] |
| COc1cccc(C=O)c1OCCCOc1cccc2cccnc12 | inconclusive: 18.4 µM [cytotoxic, single point] |
| Nn1c(SCC(=O)NCC2CCCO2)nnc1-c1cc(Cl)ccc1Cl (stereo not given) | inactive |
| CCS(=O)(=O)NC(C)C(c1cccs1)N1CCN(c2ccc(F)cc2)CC1 (stereo not given) | inactive |
| CN(CCc1ccccn1)C(=S)Nc1ccc(Cl)c(Cl)c1 | inconclusive: 29.1 µM [cytotoxic, single point] |

| Compound | Potency |
| --- | --- |
| COC(=O)c1sc2nc(CSc3ccc(Br)cc3)[nH]c(=O)c2c1C | inactive |
| CC1CCN(S(=O)(=O)c2ccc(NC(=O)c3ccncc3)cc2)CC1 | inconclusive: 9.2 µM [cytotoxic, partial curve] |
| COc1cccc(Nc2ncnc3c2cnn3-c2cccc(C)c2)c1 | active: 20.6 µM |
| O=C(CCS(=O)(=O)c1cc2c3c(c1)CCN3C(=O)CC2)NCc1ccc(F)cc1 | inactive |
| N#Cc1cc2c(nc1SCC(=O)Nc1sc3c(c1C#N)CCC3)CCCCC2 | inactive |
| Cn1nnnc1Sc1ncnc2scc(-c3ccc(C#N)cc3)c12 | inconclusive: 29.1 µM [cytotoxic, single point] |
| CC(CC(=O)Nc1ccc(-c2ccno2)cc1)n1cccn1 (stereo not given) | inconclusive: 29.1 µM [rising, single point] |
| COc1ccc(-c2noc(CN(C(=O)c3ccoc3C)C(C)C)n2)cc1 | inconclusive: 14.6 µM [cytotoxic, partial curve] |
| COCCOC(=O)C(C#N)c1nc2ccccc2nc1N1CCN(Cc2ccccc2)CC1 (stereo not given) | inactive |
| CCOC(=O)c1ccc(N2C(=O)c3n[nH]c(C)c3C2c2ccc(OC)cc2)cc1 (stereo not given) | active: 5.17 µM |
| Cc1ccc(SCC(=O)NNC(=O)c2ccccc2)c(C)c1 | inactive |
| CC(C)c1ccc(NC(=O)CNS(=O)(=O)c2ccc(F)cc2)cc1 | inconclusive: 16.4 µM [cytotoxic, single point] |
| CCc1ccc(NC(=O)Cn2nnc(C(=O)NCc3ccco3)c2N)cc1 | inconclusive: 5.8 µM [rising, partial curve, poor fit] |
| CCOc1ccccc1NC(=O)CSc1nnnn1-c1ccccc1 | active: 9.2 µM |
| O=C(Nc1ccc(CN2CCOCC2)cc1)c1cccs1 | inconclusive: 2.59 µM [cytotoxic, full curve] |
| CC(c1ccccc1)N1CCn2c(nc3cc(NC(=O)c4cccs4)ccc32)C1 (stereo not given) | inconclusive: 23.1 µM [cytotoxic, partial curve, poor fit] |
| CCc1nnc(NS(=O)(=O)c2ccc(NC(=S)NC(=O)c3ccc(Br)cc3)cc2)s1 | inactive |
| COc1ccccc1-c1c(C)nn2c(N3CCC(C)CC3)cc(C)nc12 | inconclusive: 18.4 µM [cytotoxic, partial curve, poor fit] |
| CCC1(OC(=O)CN(C)C)C(=O)OCc2c1cc1n(c2=O)Cc2cc3c(N)cccc3nc2-1 (stereo not given) | active: 2.91 µM |
| O=C(O)c1nn(-c2ccccc2)nc1-c1nn(-c2ccccc2)nc1C(=O)O | inactive |
| CSc1ccc(CCNC(=O)c2cc3n(n2)CCCN(Cc2ccc(C)cc2)C3=O)cc1 | inactive |
| CN1C(=O)c2ccc(NC(=S)NC(=O)C(C)(C)C)cc2C1=O | inconclusive: 8.2 µM [rising, partial curve] |

Structures above that contain a COOH group (2):

| Compound | Potency |
| --- | --- |
| Cc1cc(NC(=S)N(Cc2ccc(Br)cc2)Cc2ccc(C(=O)O)cc2)ccc1Cl | inactive |
| O=C(O)c1nn(-c2ccccc2)nc1-c1nn(-c2ccccc2)nc1C(=O)O | inactive |

Another view of part of the listing above.
Compound	Potency
COc1ccc(-c2noc(CN(C(=O)c3ccoc3C)C(C)C)n2)cc1	inconclusive: 14.6 µM [cytotoxic, partial curve]
CCc1ccc(NC(=O)Cn2nnc(C(=O)NCc3ccco3)c2N)cc1	inconclusive: 5.8 µM [rising, partial curve, poor fit]
CC(c1ccccc1)N1CCn2c(nc3cc(NC(=O)c4cccs4)ccc32)C1 (stereo not given)	inconclusive: 23.1 µM [cytotoxic, partial curve, poor fit]
